# Data taken from PubChem BioAssay AID587 (National Center for Advancing Translational Sciences (NCATS), 2007).
# The whole screen tested about 59,000 compounds, of which about 35 (0.06%) were called active. Inconclusive means that the source gave no clear call. Such entries were picked first, then a sample of the others. No stated cut-off is given here; in the data, active means max dye-equivalent concentration above about 10 nM; inconclusive means between about 1.1 nM and that limit; inactive means weaker than that.
# Experiment: qHTS Assay for Spectroscopic Profiling in Texas Red Spectral Region
# Conditions: Compound fluorescence, Texas Red channel, 547/618 nm; stronger effect = higher value
# In short: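 Pin-transferred compounds and Texas Red standards go into 100 mM Tris buffer, pH 8.0. After 15 min at room temperature, plates are imaged with 547/618 nm filters. Each value is a dye-equivalent concentration derived from the per-plate dye curve.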
row,Structure (SMILES),max dye-equivalent concentration
1,O=C(c1ccc(F)cc1)C1CCN(C(=O)NCc2ccccc2)CC1,inconclusive: 1.5 nM
2,CN(C)c1nc(N)nc(CSc2n[nH]c(-c3ccccc3)n2)n1,inconclusive: 1.8 nM
3,N#Cc1nc(COc2ccc(Cl)cc2)oc1N1CCCC1,inconclusive: 1.3 nM
4,CCOC(=O)c1oc2ccccc2c1NC(=O)c1ccccc1OC,inconclusive: 1.5 nM
5,Cc1cc(NCCCn2ccnc2)n2ncc(-c3ccccc3)c2n1,inconclusive: 1.4 nM
6,Cc1cnc(CNc2nc(-c3ccc(N(C)C)cc3)nc3ccccc23)cn1,inconclusive: 1.5 nM
7,Oc1[nH]c2ccccc2c1C1=NCCCC1,inconclusive: 1.8 nM
8,CC1CN(C(=O)c2ccc(C(=O)c3ccccc3)cc2)CC(C)O1 (configuration not stated),inconclusive: 1.2 nM
9,COC(=O)c1c(NC(=O)CN2CCOCC2)sc2c1CCC(C)C2 (configuration not stated),inconclusive: 2.3 nM
10,COc1ccccc1CN1CC(C(=O)N2CCN(c3ccc(F)cc3)CC2)CC1=O (configuration not stated),inconclusive: 1.1 nM
11,CN1CCN(C(=O)c2ccccc2-c2nc(-c3ccccc3)no2)CC1,inconclusive: 2 nM
12,CCC(C)[C@H](NC(=O)Nc1cccc(OC)c1)C(=O)OC (some centres not stated),inconclusive: 1.2 nM
13,COc1ccc(NC2CC(=O)N(C(C)C)C2=O)cc1 (configuration not stated),inconclusive: 1.9 nM
14,C=CCSc1nnc2n(CCc3ccccc3)c(=O)c3c4c(sc3n12)COC(C)(C)C4,inconclusive: 1.4 nM
15,CN(C)c1nc(SCCOC(=O)COc2ccc(Cl)cc2Cl)nc(N(C)C)n1,inconclusive: 1.5 nM
16,O=C(COc1ccc2c3c(c(=O)oc2c1)CCC3)NC1CCCCC1,inactive
17,COc1ccc(CCn2c(=N)c(C#N)cc3c(=O)n4ccccc4nc32)cc1,inactive
18,COc1ccc(OCC(O)Cn2c(=N)n(Cc3ccccc3)c3ccccc32)cc1 (configuration not stated),inconclusive: 2 nM
19,O=C1c2ccccc2C(=O)N1OCc1ccccc1,inactive
20,Cc1nc2ccccn2c(=O)c1CCN1CCC(C(=O)c2ccc(F)cc2)CC1,inconclusive: 1.1 nM
21,CN(Cc1ccco1)c1ncncc1-c1ccoc1,inactive
22,CCC(=O)c1ccc2c(c1)N(CCCN(C)C)c1ccccc1S2,inconclusive: 1.5 nM

# A different layout for 5 compounds above.
row | Structure (SMILES) | max dye-equivalent concentration
18 | COc1ccc(OCC(O)Cn2c(=N)n(Cc3ccccc3)c3ccccc32)cc1 (configuration not stated) | inconclusive: 2 nM
19 | O=C1c2ccccc2C(=O)N1OCc1ccccc1 | inactive
20 | Cc1nc2ccccn2c(=O)c1CCN1CCC(C(=O)c2ccc(F)cc2)CC1 | inconclusive: 1.1 nM
21 | CN(Cc1ccco1)c1ncncc1-c1ccoc1 | inactive
22 | CCC(=O)c1ccc2c(c1)N(CCCN(C)C)c1ccccc1S2 | inconclusive: 1.5 nM

# More entries

row,Structure (SMILES),max dye-equivalent concentration
1,CCn1c(COc2ccccc2)nnc1SCC(=O)Nc1cc(OC)ccc1OC,inconclusive: 2.7 nM
2,Cc1n[nH]c(=O)nc1NCc1ccc(Cl)cc1,inconclusive: 1.6 nM
3,Cn1c(N)c(C(=O)COC(=O)c2ccc3c(c2)OCCO3)c(=O)n(C)c1=O,inconclusive: 1.3 nM
4,Cc1ccc(CNC(=O)c2nnn(-c3cccc(C)c3)c2N)cc1,inconclusive: 1.1 nM
5,O=C(Nc1ccccc1)Nc1ccccc1C(=O)NCc1ccco1,inconclusive: 1.5 nM
6,Cc1cnc(CNc2ncncc2-c2ccc(N(C)C)cc2)cn1,inconclusive: 1.1 nM
7,COc1ccc(C(=O)COC(=O)CN2C(=O)C3C4C=CC(C4)C3C2=O)cc1 (configuration not stated),inconclusive: 1.3 nM
8,CCNc1ncc2nc(-c3ccc(OC)cc3)c(=O)n(Cc3ccc(F)cc3)c2n1,inactive
9,CCc1nc2ccccc2c(C(=O)OCC(=O)Nc2ccc(S(=O)(=O)N3CCOCC3)cc2)c1C,inconclusive: 1.8 nM
10,CN(C)c1ccc(NC(=O)CCCc2ccccc2)cc1,inconclusive: 1.2 nM
11,O=c1c2ccccc2nnn1CSc1nnc(-c2cccnc2)n1-c1ccccc1F,inconclusive: 1.5 nM
12,O=C(Nc1ccncc1)c1cc2ccccc2oc1=O,inconclusive: 1.4 nM
13,CC1(C)O[C@H]2C[C@@H]3[C@H]4CCC5=CC(=O)CC[C@@]5(C)[C@]4(F)[C@@H](O)C[C@@]3(C)[C@@]2(C(=O)CCl)O1,inconclusive: 1.2 nM
14,O=C(NCc1ccco1)c1ccccc1Nc1ccc(F)cc1,inconclusive: 1.6 nM
15,CCOCCCn1cnc2c(c1=O)c1nc3ccccc3nc1n2-c1ccc(C)cc1,inconclusive: 1.4 nM
16,CC(C)CC(=O)NC1(C(F)(F)F)C(=O)Nc2c1c(=O)n(C)c(=O)n2C (configuration not stated),inconclusive: 1.3 nM
17,O=C(OCc1cc2ccccc2[nH]c1=O)c1ccncc1,inconclusive: 1.2 nM
18,CCN1C(=O)C2(C(C(=O)c3ccc(C)o3)=C(O)C(=O)N2CCCN2CCOCC2)c2ccccc21 (configuration not stated),inconclusive: 1.2 nM
19,Cc1cc(=O)oc(C)c1C(=O)Nc1cnc2ccccc2c1,inconclusive: 1.2 nM
20,CCCc1ccc(C(=O)CCC(=O)O)cc1,inconclusive: 1.8 nM
21,CC(=O)N1CC=C2C(C#N)=C(N)C(C#N)(C#N)[C@H](c3ccoc3)[C@H]2C1,inactive
22,O=C(CSc1nc2ccccc2c(=O)n1CCCO)NCc1ccccc1,inconclusive: 1.8 nM

row,Structure (SMILES),max dye-equivalent concentration
1,CN1CCN(/C(=N\S(=O)(=O)c2ccc(F)cc2)c2ccccc2)CC1,inconclusive: 1.8 nM
2,Cn1c(NCc2ccccc2)nc2c1c(=O)n(Cc1ccccc1)c(=O)n2C,inconclusive: 1.2 nM
3,CC(/C=C/c1ccc(Cl)o1)=C\C(=O)O,inconclusive: 1.1 nM
4,C/C(N)=C(/C#N)C(=O)CSc1nnc(Nc2cccc(C)c2C)s1,inconclusive: 1.7 nM
5,COc1ccc(N2CCN(C(=O)CSc3nnc(-c4ccc5[nH]c(C)c(C)c5c4)o3)CC2)cc1,inconclusive: 1.4 nM
6,COc1ccccc1N=C1SC(C)CN1C(=O)C1CCC1 (configuration not stated),inconclusive: 1.2 nM
7,CCNc1ncc2nc(-c3ccc(Cl)cc3)c(=O)n(C3CC3)c2n1,inactive
8,COCCNC(=O)Cn1nc(C)c2ccccc2c1=O,inconclusive: 1.1 nM
9,Cc1cc(NC(=O)COC(=O)COc2cccc3c2OC(C)(C)C3)no1,inconclusive: 2.2 nM
10,CCc1c(C)sc(NC(=O)c2ccc(Br)o2)c1C(=O)OC,inactive
11,COc1cc2nc(-c3ccc(Br)o3)oc(=O)c2cc1OC,inconclusive: 1.7 nM
12,O=C(CCC(=O)c1cccs1)NCc1ccccc1,inconclusive: 1.1 nM
13,CCOC(=O)Cn1c(=O)c2c(nc(Br)n2Cc2ccccc2)n(C)c1=O,inconclusive: 2.6 nM
14,CCCNC(=O)c1cccc(Cn2nc(C)c(Br)c2C)c1,inconclusive: 1.5 nM
15,O=C(c1cccn2c(=O)c3cc(Br)ccc3nc12)N1CCN(c2ccccn2)CC1,inconclusive: 1.2 nM
16,CCn1c(COc2cccc(C)c2)nnc1SCC(=O)CC(=O)Nc1ccccc1OC,inconclusive: 1.8 nM
17,Cc1cc2cc(CNC(=O)c3cccs3)ccc2n1C,inconclusive: 3 nM
18,COCc1cc(=O)n2c([nH]c3ccccc32)c1C#N,inconclusive: 1.7 nM
19,COC(=O)c1ccc(N2CCN(C)CC2)c(NC(=O)c2cc3ccccc3o2)c1,inconclusive: 1.4 nM
20,COc1cccc(CNC(=O)C2CCCN(c3nn4c(=O)cc(C)nc4s3)C2)c1 (configuration not stated),inconclusive: 1.2 nM
21,CCOc1ccc(-c2nc(-c3ccc(OC)cc3)no2)cc1OCC,inconclusive: 2 nM
22,CC(=O)N1CCc2cc(S(=O)(=O)NC(CC(C)C)C(=O)Nc3ccc4c(c3)OCCO4)ccc21 (configuration not stated),inconclusive: 2.2 nM

row,Structure (SMILES),max dye-equivalent concentration
1,CN(C)c1ncc2nc(-c3cccs3)c(=O)n(CCC#N)c2n1,inactive
2,O=C(NCC1CCCO1)C1CCN(S(=O)(=O)Cc2ccccc2)CC1 (configuration not stated),inconclusive: 1.3 nM
3,Oc1c(CN2CCCCC2)cc(Br)c2cccnc12,inconclusive: 1.1 nM
4,CC(C)OC(=O)CSc1nnc(-c2ccccn2)n1-c1ccccc1,inconclusive: 1.2 nM
5,COc1ccccc1NC(=O)c1ccc(-c2ccccc2F)o1,inconclusive: 1.1 nM
6,O=c1[nH]c2c(c3c1CCCC3)CCCC2,inconclusive: 1.2 nM
7,O=C(CC(Sc1ccccc1)c1cccs1)c1ccco1 (configuration not stated),inconclusive: 1.1 nM
8,O=C(COc1ccccc1)NCCSCc1ccco1,inconclusive: 1.2 nM
9,Cc1ccc(C)c([C@@H]2NC(=O)c3ccccc3N2)c1,inactive
10,Cc1ccc2[nH]c3c(c2c1)CN(C(=O)CN1CCN(Cc2ccc4c(c2)OCO4)CC1)CC3,inconclusive: 1.2 nM
11,COc1ccc(S(=O)(=O)N2CCN(c3cc(-c4ccccc4)nc4ncnn34)CC2)cc1,inconclusive: 1.3 nM
12,COC(=O)C1C(=O)NC(SC)=C(C#N)C1c1ccccc1 (configuration not stated),inconclusive: 2.3 nM
13,O=C(NCc1ccco1)c1ccc2c(c1)C(=O)c1ccccc1-2,inconclusive: 1.4 nM
14,CCn1nnc(NC(=O)c2ccccc2Br)n1,inconclusive: 1.2 nM
15,[Cu].[O-]/N=C1/C(=[OH+])Nc2ccccc21.[O-]Nc1c(O)[nH]c2ccccc12,inconclusive: 1.5 nM
16,Cc1ccccc1OCc1nc2ccccc2c(=O)n1/N=C/c1ccco1,inconclusive: 1.1 nM
17,COC(=O)c1cc(S(=O)(=O)NC2CCN(Cc3ccccc3)CC2)cn1C,inconclusive: 1.3 nM
18,Cc1nn2c(-c3ccccc3)nnc2c2ccccc12,inconclusive: 1.4 nM
19,Cc1cc(C)cc(N(CC(=O)NCC2CCCO2)C(=O)CN2C(=O)COc3ccccc32)c1 (configuration not stated),inconclusive: 2 nM
20,COC(=O)c1sc(=S)n(-c2cc(F)ccc2F)c1N,inconclusive: 2.2 nM
21,COC(=O)c1sccc1NC(=O)c1cc2c(s1)CCCC2,inactive
